Results: publication PMC11763251
Results are given in words; binding and its absence hold for the method and conditions named. In cells and extracts the contact can be indirect. Some entries that bind do so weakly or less than the wild type.

Chains of the proteins cited; added tags and fusions are not shown.
UniProt Q6P5G0: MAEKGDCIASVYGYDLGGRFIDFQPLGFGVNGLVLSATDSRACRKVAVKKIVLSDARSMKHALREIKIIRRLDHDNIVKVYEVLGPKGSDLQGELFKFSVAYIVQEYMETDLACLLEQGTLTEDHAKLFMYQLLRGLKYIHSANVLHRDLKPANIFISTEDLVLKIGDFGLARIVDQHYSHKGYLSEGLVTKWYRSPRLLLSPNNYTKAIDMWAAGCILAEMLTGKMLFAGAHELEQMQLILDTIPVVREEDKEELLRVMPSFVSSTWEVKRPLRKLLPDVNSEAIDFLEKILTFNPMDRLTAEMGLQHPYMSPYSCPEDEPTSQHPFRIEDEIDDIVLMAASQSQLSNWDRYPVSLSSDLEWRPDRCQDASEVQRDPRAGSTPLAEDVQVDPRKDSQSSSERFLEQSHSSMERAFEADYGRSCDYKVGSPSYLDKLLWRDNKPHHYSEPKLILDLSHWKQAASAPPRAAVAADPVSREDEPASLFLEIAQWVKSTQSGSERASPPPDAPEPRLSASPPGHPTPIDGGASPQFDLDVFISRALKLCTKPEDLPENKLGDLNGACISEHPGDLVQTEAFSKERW

Target: T1, IRF4 (mouse (endogenous in splenic B cells)) (UniProt Q64287)
T1 sequence: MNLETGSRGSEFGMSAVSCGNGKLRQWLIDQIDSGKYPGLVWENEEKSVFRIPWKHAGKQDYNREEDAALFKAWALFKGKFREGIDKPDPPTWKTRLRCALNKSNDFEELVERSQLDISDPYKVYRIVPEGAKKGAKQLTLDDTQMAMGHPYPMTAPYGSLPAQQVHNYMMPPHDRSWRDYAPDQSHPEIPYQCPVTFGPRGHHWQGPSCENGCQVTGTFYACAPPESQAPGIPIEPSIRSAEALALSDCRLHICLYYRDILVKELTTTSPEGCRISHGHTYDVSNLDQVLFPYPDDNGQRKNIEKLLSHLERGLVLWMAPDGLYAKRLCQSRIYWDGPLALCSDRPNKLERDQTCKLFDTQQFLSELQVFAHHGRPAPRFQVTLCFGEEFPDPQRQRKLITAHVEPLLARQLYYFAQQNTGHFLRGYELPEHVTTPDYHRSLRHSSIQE
Experiment: co-IP; splenic B cell lysates from WT mice incubated with anti-IRF4, anti-MAPK4 or control IgG overnight at 4 °C, then Protein A/G beads; IRF4 and MAPK4 detected in IP and input samples by Western blotting

## MAPK4 (Mitogen-Activated Protein Kinase 4) (from UniProt Q6P5G0 1-583)
  binding: binds
